{
  "source": "ChEMBL document CHEMBL3259599",
  "about": "“Novel colchicine-site binders with a cyclohexanedione scaffold identified through a ligand-based virtual screening approach” (J Med Chem, 2014)",
  "key": {"HeLa": {"test_system": "HeLa", "assay": "Antiproliferative activity against human HeLa cells after 4 days by coulter counter analysis", "assay_type": "functional, cell-based", "conditions": "96 h"}, "CCRF-CEM": {"test_system": "CCRF-CEM", "assay": "Antiproliferative activity against human CEM cells after 48 to 96 hrs by coulter counter analysis", "assay_type": "functional, cell-based"}, "[1]": {"assay": "Antiproliferative activity against HMEC1 after 4 days by coulter counter analysis", "assay_type": "functional", "conditions": "Homo sapiens, HMEC-1, 96 h"}},
  "data": [
    {"smiles": "COc1cc2c(c(OC)c1OC)-c1ccc(OC)c(=O)cc1[C@@H](NC(C)=O)CC2", "note": "[COLCHICINE]", "values": [
      {"measurement": "IC50", "setting": "HeLa", "result": 8.7, "unit": "nM"},
      {"measurement": "IC50", "setting": "CCRF-CEM", "result": 13, "unit": "nM"},
      {"measurement": "IC50", "setting": "[1]", "result": 3.8, "unit": "nM"}
    ]}
  ]
}
